Measured values reported in PMC3847324, “Jun dimerization protein 2 is a critical component of the Nrf2/MafK complex regulating the response to ROS homeostasis”.
The exact form of at least one protein or probe is not confirmed. Negatives hold for the conditions tested. For some of these results: Where a protein sequence is shown, tags need not be part of it.

Amino acid sequences for entries named in this document (tags omitted).
UniProt P97875, whole entry, stated change not applied: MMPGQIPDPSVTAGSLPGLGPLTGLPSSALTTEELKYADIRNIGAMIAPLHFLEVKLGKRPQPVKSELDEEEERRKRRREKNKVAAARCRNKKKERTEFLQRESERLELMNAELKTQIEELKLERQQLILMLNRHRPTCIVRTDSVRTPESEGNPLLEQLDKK

Legend:
Assay in all cases: EMSA
[1] = biological target: GST-JDP2 FL34R (ZIP mutant) (mouse) (UniProt P97875); conditions: EMSA: 5 ug GST fusion or 10 ng IVT protein, 25 C 30 min; 5% native PAGE in 0.5x TBE at 4 C; binding buffer, salt and pH not given; recombinant protein; protein details: GST
GST-JDP2 NT102 (mouse) = GST-JDP2 NT102 (mouse) (UniProt P97875); conditions: EMSA: 5 ug GST fusion or 10 ng IVT protein, 25 C 30 min; 5% native PAGE in 0.5x TBE at 4 C; binding buffer, salt and pH not given; recombinant protein; protein details: GST
GST-JDP2 NT70 (mouse) = GST-JDP2 NT70 (mouse) (UniProt P97875); conditions: EMSA: 5 ug GST fusion or 10 ng IVT protein, 25 C 30 min; 5% native PAGE in 0.5x TBE at 4 C; binding buffer, salt and pH not given; recombinant protein; protein details: GST
IVT-Nrf2 = biological target: T1, IVT-Nrf2 (UniProt Q60795); conditions: Nrf2 alone; EMSA: 5 ug GST fusion or 10 ng IVT protein, 25 C 30 min; 5% native PAGE in 0.5x TBE at 4 C; binding buffer, salt and pH not given; protein translated in vitro
T1 sequence (looked up, limits assumed): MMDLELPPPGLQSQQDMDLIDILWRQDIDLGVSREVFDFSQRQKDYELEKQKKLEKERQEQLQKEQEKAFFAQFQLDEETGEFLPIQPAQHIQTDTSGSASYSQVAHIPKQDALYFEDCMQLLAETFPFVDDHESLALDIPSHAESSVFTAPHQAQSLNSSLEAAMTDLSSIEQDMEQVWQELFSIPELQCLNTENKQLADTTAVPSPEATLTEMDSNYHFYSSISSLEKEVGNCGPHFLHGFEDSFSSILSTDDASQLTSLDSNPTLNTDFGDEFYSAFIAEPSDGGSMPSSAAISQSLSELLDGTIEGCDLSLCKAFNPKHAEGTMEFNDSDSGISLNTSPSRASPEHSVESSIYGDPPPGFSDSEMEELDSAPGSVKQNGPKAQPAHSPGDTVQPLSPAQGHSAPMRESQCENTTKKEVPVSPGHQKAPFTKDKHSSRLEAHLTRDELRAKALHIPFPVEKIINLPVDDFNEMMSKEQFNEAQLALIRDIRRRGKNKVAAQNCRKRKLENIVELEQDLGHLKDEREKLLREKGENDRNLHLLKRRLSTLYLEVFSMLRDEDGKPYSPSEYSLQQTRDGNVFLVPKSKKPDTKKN

Measured: binding result

CAGTCACAGTGACTCAGCAGAATCT (double strand) [human NQO1-ARE WT]
no binding: all assays above
